In all, about 33,000 sequences were measured (“E-score (-0.5 to 0.5)”: median about -0.016, highest 2% from about 0.3 on). Some of the results follow.
These sequences were tested against T1, Yer184c (UniProt P39961) (assay: PBM E-score (8-mer binding enrichment) (E-score (-0.5 to 0.5)); higher = stronger / more preferred TF binding). Conditions: protein concentration: 100 nM; construct: GST-full length.
T1 sequence: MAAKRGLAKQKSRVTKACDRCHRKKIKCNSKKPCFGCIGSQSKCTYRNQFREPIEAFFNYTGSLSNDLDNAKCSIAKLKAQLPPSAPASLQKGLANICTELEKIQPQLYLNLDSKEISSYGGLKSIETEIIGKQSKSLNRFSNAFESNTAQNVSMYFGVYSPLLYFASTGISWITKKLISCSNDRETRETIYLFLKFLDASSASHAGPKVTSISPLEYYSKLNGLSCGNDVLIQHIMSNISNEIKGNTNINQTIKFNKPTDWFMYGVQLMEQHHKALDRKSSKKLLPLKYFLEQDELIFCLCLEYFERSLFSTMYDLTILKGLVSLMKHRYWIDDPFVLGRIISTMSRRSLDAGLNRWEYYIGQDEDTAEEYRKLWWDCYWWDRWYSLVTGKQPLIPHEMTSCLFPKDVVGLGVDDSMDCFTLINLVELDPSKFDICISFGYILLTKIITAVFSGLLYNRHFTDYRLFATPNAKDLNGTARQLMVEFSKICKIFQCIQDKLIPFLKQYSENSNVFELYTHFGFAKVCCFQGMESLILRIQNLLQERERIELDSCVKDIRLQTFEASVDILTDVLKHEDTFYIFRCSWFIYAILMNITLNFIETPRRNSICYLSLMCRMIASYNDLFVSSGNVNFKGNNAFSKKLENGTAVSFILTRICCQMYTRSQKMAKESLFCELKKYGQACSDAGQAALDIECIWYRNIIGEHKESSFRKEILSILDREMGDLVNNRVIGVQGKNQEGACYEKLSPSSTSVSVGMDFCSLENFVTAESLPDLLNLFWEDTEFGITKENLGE
Method in brief: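 Each ungapped eight-base word and its reverse complement, pooled, received an E-score from the Universal PBM Analysis Suite. Underlying scans, normalised with masliner, recorded fluorescent anti-GST bound to GST-tagged yeast transcription factors. These were applied at about 100-200 nM to universal all-10-mer Agilent arrays double-stranded by primer extension.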

Row | Sequence | PBM E-score
1 | CTCGTTTA | 0.0119
2 | CGTTTCCA | 0.0491
3 | CCAGCCGA | 0.205
4 | ACTATCAA | 0.192
5 | CGGAACTC | 0.202
6 | ACAAGCGG | 0.0922
7 | ACCGTAAT | -0.0105
8 | GATGTCAC | 0.0784
9 | AATAGACC | 0.113
10 | ATCATGAC | 0.024
11 | ATGAGAAC | 0.0724
12 | CAGCGTAC | -0.147
13 | CTCCTTTC | -0.22
14 | AAGCTTTA | 0.0442
15 | GACCCAAC | -0.144
16 | ACCGTGTC | 0.069
17 | CCAAGGCA | -0.126
18 | ACACTTCC | 0.0751
19 | AATGTCGC | -0.114
20 | GGGTCGAC | -0.0694
21 | CTCCGGCA | 0.359
22 | ATTTCTCA | 0.099
23 | TCAAATAA | 0.197
24 | ATGGGTTC | -0.159
25 | AGGGTATA | 0.00268

Row | Sequence | PBM E-score
26 | ACTGTAGA | 0.00065
27 | CGGGGTAC | -0.0331
28 | CAGGTCGC | -0.232
29 | GCCTATCA | -0.113
30 | ATGTGATC | 0.15
31 | CGTATAAA | 0.311
32 | GGTCGCAA | 0.0718
33 | GCGGGGGA | -0.255
34 | ATCACTTG | -0.155
35 | CCATCACC | -0.211
36 | ATATAGGA | -0.0864
37 | ACTCAGTA | 0.0602
38 | GACTCAGC | -0.222
39 | CCACAAGC | -0.273
40 | CAACGCCG | 0.294
41 | CCGTGTAA | 0.0462
42 | CTACTCAA | 0.113
43 | AAGGCACC | -0.146
44 | GCGGGGCA | -0.0118
45 | CAGCTTTC | -0.151
46 | AACAGAAG | 0.0218
47 | TAAGGCCA | -0.113
48 | GCGGTGAC | -0.129
49 | CTACGCGC | 0.0464
50 | GCGATTGA | -0.114

Row | Sequence | PBM E-score
51 | ACAGTTCT | -0.0571
52 | CGAGCAAG | -0.14
53 | TCTGCGAA | -0.186
54 | ACGTGTCA | -0.0719
55 | ACCTCGGG | 0.00401
56 | GAGGGTAA | -0.122
57 | ACTCAATG | -0.0468
58 | ACGATTCT | -0.0237
59 | GTTTTATA | 0.141
60 | ACAAAACC | 0.129
61 | GACAGATC | 0.0707
62 | AACTCCCT | -0.179
63 | CATTTATC | -0.0411
64 | GCATCTAC | 0.013
65 | CTGCTCTC | -0.13
66 | GACGACCC | -0.102
67 | CGCCGTAC | 0.0234
68 | ACTCCGAG | 0.233
69 | AACTCAAG | 0.16
70 | ACTTGGCG | -0.15
71 | GCGACCCC | -0.265
72 | AGTTGGTA | 0.042
73 | CGAAAGCG | -0.221
74 | AATGGAAC | 0.176
75 | AAGAATAG | 0.0736

Row | Sequence | PBM E-score
76 | ACCAGAGC | -0.0444
77 | GGGACATA | -0.048
78 | ATCTCATG | -0.0834
79 | CCTTGTCG | -0.108
80 | AGGGCTCC | -0.297
81 | GCAAAGAC | -0.0156
82 | AACAGACG | -0.0417
83 | AAACTTCG | 0.0643
84 | ACATCGGC | 0.146
85 | GCATTCAC | 0.189
86 | ACAATAGT | -0.0128
87 | AAGAATAA | 0.0383
88 | GTCGTATA | 0.109
89 | AAGGAGCT | -0.237
90 | CTACATGC | -0.0715
91 | ACTTGGAA | -0.017
92 | CCAGACGA | -0.0476
93 | ATCTGGCA | 0.141
94 | ACGGCAAG | 0.0759
95 | AATGCCAC | -0.209
96 | GTTGATCA | 0.13
97 | CCAAAAGG | -0.136
98 | GAATAGAC | 0.0134
99 | GTGGGTGA | -0.0808
100 | ACTGATGA | -0.0434

Row | Sequence | PBM E-score
101 | GAAACCGA | 0.146
102 | CCTCAATC | 0.102
103 | ACATAATA | 0.17
104 | AATCTAGG | 0.0186
105 | ACAGTGTG | -0.137
106 | AGCGTGTA | -0.0339
107 | CCAGCAGA | -0.0266
108 | CTGCAAGC | -0.072
109 | CATCGGAG | 0.00534
110 | CTGATCAA | -0.0456
111 | CAGATCTG | 0.00364
112 | AATTAAGT | 0.221
113 | CGACAAAC | 0.0595
114 | AATTCAGA | 0.118
115 | CGTCGTAC | -0.124
116 | ACTGGAGC | -0.23
117 | GGCACGAA | 0.0418
118 | CAAAAGCG | 0.0788
119 | GGAATTCA | 0.133
120 | ACAAAACT | 0.144
121 | CACGGGGG | -0.231
122 | TGACCTCA | -0.0893
123 | CTTGGCAA | -0.107
124 | CAATGCTG | -0.1
125 | GGAGTACA | -0.0518

Row | Sequence | PBM E-score
126 | CCGTTCTC | 0.0111
127 | AGAGGGTA | -0.278
128 | AACTGCTG | -0.0635
129 | AAATAGGA | 0.142
130 | CGCAGCCG | 0.0498
131 | GATAATTA | 0.318
132 | CACTGACG | -0.14
133 | CGCTCAAA | -0.0389
134 | TAAGCGGA | 0.105
135 | CGTTAGCC | 0.0792
136 | ACGCCACT | -0.069
137 | CAGAACTA | -0.00112
138 | CCCAACCC | -0.249
139 | AGCTACCG | -0.108
140 | AGTGTACG | -0.0983
141 | ATCCAATA | 0.105
142 | CGCTGACG | -0.314
143 | TATGTGCA | -0.0853
144 | TATAAACA | 0.272
145 | GTCTGCCA | -0.095
146 | ACTGGCCA | -0.212
147 | GTCTCCGA | 0.243
148 | AAATTAAA | 0.285
149 | ACGAAACA | 0.154
150 | AATCTGCC | 0.0339

Row | Sequence | PBM E-score
151 | GCATCAGA | 0.1
152 | GTACCCTA | -0.204
153 | AACGTCTT | -0.0983
154 | GTCACAAA | 0.186
155 | AATTCTCT | -0.183
156 | CCCCGGAG | 0.135
157 | CAGTTTGA | 0.0222
158 | GCCGCTCC | -0.0803
159 | ACACCTGT | -0.132
160 | CGCTGCAA | 0.0112
161 | AAGGCGCT | -0.131
162 | ATCGCGAC | 0.00425
163 | AGTTCGCA | 0.0278
164 | AACCGCAT | 0.175
165 | CCCAACGG | -0.0834
166 | AGAGGACA | -0.0658
167 | ATCTAACC | 0.0612
168 | CGAAGGCG | -0.0487
169 | GTGTCATA | 0.0166
170 | AATTGGCT | 0.0616
171 | CGTTTAAC | -0.0473
172 | ACTAAACT | 0.0129

Source: the supplement of paper PMC3334620
